Source: the supplement of paper PMC10849652
Some of the results follow.

By UniProt entry, the sequences of proteins in these tests, tags left out. Where a name states a change or a piece, a line headed by the entry shows the natural chain unless it says otherwise.
UniProt Q9H1H9: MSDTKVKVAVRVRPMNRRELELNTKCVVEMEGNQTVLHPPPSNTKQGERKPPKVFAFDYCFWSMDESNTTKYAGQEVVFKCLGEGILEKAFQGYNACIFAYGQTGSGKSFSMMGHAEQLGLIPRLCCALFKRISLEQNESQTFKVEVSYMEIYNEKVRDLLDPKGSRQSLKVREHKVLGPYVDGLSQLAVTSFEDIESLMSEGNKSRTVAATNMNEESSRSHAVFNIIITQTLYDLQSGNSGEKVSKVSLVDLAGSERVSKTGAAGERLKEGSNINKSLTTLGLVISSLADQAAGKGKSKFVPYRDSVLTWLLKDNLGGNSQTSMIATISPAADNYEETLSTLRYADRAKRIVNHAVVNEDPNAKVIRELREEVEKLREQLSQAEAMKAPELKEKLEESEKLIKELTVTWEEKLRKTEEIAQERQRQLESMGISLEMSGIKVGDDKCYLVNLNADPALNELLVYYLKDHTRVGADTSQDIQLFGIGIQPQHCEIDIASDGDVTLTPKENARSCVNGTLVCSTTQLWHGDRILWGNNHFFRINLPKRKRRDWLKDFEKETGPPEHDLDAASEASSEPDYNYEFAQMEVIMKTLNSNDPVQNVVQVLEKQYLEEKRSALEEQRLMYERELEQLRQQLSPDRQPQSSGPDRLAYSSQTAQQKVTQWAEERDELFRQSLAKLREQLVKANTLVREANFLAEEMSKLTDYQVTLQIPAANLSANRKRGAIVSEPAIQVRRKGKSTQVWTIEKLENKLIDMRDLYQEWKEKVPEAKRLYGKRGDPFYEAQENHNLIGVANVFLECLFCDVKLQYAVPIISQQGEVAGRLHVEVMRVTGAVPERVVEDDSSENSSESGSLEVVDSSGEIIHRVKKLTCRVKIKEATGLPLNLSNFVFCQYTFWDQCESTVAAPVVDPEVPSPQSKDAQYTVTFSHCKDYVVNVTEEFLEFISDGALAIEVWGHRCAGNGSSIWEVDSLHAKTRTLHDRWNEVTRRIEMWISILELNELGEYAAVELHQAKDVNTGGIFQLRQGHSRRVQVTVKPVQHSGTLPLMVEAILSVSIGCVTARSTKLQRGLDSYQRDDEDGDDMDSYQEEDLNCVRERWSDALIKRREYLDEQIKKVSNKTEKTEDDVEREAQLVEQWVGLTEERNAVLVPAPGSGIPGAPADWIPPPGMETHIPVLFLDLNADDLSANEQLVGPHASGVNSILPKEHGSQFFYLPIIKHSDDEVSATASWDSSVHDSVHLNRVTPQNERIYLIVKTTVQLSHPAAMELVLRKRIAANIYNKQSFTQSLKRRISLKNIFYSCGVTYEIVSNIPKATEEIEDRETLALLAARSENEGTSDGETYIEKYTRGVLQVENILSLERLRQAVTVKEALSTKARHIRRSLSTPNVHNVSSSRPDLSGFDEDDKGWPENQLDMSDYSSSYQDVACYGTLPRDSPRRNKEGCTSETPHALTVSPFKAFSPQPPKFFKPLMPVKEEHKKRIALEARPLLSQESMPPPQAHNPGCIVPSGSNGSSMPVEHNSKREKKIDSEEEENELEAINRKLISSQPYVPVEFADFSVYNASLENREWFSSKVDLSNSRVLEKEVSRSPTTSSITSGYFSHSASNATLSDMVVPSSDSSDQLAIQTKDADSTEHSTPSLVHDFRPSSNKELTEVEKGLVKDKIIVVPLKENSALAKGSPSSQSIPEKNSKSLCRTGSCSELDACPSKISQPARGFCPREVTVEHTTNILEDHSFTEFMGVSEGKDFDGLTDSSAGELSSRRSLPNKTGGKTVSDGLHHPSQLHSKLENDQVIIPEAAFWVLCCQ
UniProt Q8IXQ5, whole entry, looked up: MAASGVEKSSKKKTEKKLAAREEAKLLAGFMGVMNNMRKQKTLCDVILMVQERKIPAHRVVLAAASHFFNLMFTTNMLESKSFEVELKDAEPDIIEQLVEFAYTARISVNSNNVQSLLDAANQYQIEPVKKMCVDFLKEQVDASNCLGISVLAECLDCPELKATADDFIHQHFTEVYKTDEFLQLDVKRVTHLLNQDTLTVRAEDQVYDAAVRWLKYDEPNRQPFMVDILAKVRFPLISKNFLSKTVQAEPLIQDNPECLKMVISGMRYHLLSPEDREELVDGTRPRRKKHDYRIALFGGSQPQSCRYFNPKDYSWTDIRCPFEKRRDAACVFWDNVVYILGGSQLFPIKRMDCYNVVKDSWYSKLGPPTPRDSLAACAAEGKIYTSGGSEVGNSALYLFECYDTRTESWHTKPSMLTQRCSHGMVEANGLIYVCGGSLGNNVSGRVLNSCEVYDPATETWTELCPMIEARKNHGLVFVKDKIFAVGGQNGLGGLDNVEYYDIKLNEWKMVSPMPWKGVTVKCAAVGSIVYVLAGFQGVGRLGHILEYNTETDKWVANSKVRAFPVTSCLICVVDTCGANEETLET
UniProt Q96L93: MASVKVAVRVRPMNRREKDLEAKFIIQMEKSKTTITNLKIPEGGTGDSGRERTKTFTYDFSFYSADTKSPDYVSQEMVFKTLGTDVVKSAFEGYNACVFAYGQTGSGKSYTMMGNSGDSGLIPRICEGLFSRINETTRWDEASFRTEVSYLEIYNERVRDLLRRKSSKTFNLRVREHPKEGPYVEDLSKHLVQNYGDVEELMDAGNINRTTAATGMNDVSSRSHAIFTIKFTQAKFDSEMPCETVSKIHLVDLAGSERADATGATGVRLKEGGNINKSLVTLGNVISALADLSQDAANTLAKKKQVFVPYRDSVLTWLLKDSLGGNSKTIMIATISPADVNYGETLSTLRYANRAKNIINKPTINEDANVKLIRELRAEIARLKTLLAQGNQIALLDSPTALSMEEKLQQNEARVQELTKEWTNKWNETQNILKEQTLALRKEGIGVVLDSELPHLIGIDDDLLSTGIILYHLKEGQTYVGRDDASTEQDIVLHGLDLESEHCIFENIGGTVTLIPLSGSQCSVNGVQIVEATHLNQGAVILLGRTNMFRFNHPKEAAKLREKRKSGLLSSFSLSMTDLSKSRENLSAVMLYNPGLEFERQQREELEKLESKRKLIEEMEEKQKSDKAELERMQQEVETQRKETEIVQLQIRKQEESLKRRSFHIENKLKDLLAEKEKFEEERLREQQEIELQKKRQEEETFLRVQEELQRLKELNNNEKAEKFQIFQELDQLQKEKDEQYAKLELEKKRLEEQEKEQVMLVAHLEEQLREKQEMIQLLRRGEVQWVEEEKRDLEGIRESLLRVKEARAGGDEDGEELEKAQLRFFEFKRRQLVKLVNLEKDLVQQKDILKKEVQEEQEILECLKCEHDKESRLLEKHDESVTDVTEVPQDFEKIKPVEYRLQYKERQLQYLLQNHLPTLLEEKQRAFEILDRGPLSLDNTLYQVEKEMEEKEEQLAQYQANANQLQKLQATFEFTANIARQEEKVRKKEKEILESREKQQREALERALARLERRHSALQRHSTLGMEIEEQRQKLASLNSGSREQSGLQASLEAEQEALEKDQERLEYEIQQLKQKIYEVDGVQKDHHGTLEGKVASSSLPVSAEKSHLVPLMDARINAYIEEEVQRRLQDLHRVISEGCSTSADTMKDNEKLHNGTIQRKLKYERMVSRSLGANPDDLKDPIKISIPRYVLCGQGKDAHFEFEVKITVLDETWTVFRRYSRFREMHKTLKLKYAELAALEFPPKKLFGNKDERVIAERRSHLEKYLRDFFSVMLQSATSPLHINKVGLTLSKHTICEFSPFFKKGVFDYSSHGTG
UniProt Q15053: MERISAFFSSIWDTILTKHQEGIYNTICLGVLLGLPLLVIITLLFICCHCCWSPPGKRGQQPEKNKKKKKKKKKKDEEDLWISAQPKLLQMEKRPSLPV
UniProt Q9P2K6: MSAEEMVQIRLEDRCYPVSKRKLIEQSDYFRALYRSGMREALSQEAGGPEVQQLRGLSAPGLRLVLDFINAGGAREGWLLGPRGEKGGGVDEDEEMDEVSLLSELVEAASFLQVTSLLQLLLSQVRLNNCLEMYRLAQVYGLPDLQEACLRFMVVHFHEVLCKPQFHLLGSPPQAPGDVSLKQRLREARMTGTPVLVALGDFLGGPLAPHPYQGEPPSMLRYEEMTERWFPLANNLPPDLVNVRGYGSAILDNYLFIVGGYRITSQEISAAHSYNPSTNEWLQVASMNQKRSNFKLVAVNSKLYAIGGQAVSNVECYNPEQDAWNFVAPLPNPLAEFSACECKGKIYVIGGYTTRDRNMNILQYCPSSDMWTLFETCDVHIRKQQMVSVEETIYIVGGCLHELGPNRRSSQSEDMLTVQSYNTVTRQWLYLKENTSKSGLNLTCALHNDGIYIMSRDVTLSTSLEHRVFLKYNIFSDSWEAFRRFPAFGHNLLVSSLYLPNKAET
UniProt O95239: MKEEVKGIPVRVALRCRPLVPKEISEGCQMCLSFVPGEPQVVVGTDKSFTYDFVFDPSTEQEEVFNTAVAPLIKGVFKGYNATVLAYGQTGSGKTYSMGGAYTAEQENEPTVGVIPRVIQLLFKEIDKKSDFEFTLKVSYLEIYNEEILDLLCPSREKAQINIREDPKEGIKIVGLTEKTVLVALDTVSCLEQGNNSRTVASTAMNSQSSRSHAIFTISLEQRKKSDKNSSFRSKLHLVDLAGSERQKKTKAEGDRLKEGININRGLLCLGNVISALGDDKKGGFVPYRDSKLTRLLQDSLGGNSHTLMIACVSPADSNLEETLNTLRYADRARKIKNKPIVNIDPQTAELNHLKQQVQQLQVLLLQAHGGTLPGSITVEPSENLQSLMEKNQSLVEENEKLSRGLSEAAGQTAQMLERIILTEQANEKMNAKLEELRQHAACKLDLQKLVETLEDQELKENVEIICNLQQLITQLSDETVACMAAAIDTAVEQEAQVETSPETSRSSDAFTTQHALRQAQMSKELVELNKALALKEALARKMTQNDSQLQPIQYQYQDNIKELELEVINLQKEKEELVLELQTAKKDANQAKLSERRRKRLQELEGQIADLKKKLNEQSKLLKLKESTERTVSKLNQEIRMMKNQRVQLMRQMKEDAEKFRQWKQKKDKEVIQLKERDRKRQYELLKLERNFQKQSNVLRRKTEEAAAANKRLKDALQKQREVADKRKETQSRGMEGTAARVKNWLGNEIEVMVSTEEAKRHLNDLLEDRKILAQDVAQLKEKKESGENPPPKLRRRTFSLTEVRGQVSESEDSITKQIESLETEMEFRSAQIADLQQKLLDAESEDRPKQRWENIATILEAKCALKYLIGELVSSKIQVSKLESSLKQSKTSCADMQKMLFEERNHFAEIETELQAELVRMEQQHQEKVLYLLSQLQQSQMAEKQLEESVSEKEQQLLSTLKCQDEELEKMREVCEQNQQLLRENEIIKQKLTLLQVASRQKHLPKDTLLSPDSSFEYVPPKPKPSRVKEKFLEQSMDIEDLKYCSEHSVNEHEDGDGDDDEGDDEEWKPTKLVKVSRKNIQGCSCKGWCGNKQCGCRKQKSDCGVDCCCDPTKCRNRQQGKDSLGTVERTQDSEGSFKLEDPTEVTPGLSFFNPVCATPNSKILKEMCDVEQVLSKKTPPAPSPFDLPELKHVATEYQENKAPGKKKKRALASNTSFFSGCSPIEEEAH
UniProt O00180: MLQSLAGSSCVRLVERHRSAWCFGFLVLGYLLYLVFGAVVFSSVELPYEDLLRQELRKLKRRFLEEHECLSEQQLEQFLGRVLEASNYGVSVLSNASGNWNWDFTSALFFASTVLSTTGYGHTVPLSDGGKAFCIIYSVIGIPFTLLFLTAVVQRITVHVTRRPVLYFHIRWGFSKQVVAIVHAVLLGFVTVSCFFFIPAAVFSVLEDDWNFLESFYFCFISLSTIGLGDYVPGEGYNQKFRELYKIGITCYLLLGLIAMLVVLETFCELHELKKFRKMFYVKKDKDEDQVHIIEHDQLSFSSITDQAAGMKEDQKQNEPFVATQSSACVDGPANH
UniProt Q9BW19: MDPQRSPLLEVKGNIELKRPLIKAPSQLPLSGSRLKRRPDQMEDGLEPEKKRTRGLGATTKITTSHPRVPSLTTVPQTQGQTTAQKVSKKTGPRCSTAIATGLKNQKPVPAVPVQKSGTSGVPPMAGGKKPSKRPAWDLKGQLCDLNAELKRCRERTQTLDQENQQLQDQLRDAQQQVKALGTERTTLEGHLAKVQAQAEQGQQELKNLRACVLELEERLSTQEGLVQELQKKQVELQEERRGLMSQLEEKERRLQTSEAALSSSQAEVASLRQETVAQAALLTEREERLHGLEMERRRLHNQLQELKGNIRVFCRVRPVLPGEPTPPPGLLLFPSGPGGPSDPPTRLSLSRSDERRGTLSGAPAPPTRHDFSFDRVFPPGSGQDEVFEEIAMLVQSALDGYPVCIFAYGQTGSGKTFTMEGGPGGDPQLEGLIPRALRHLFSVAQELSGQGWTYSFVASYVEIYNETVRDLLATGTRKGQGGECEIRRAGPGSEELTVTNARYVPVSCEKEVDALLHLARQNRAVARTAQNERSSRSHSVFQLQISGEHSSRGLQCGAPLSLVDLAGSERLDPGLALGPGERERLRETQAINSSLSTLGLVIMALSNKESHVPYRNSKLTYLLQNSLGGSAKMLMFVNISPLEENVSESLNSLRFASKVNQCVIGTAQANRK

What follows are targets tested with c1ccc([C@@H]2C[C@H]2NC2CCNCC2)cc1 (assay: log2 fold change, soluble protein after heating vs DMSO (PISA); higher = thermal stabilisation; K562 cells, 10 uM, 30 min; active = over 0.2 and 3.5 SD of the protein, either way, in both replicates (recomputed)).
Procedure, shortened: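 K562 cells at 2×10^6 cells/mL were treated with 10 μM compound for 30 min. Aliquots were heated for 3 min across 48°C-58°C, pooled, and extracted in PBS with 0.5% NP-40 at 4°C; soluble protein was the supernatant after 21,000xg for 90 min. Soluble protein was quantified by TMTpro 16plex LC-MS/MS with channel sums equalised, and reported as log2 fold change in thermal stability against DMSO controls, with values from duplicates.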

Target	log2 fold change
KDF1 (UniProt Q8NAX2)	inactive: 0.233
KIF13A isoform 4 (UniProt Q9H1H9)	inactive: -0.367
KLHL7 isoform 3 (UniProt Q8IXQ5)	inactive: 0.229
KMT2A isoform 3 (UniProt Q03164)	inactive: -0.069
KIF16B isoform 2 (UniProt Q96L93)	inactive: -0.141
KIAA0040 (UniProt Q15053)	inactive: 0.144
KIF1C (UniProt O43896)	inactive: -0.154
KDM6A (UniProt O15550)	inactive: -0.036
KLHL42 (UniProt Q9P2K6)	inactive: 0.014
KNL1 (UniProt Q8NG31)	inactive: -0.099
KDM3A (UniProt Q9Y4C1)	inactive: -0.15
KATNBL1 (UniProt Q9H079)	inactive: -0.043
KALRN (UniProt O60229)	inactive: -0.174
KIF4A (UniProt O95239)	inactive: 0.225
KCNK1 (UniProt O00180)	inactive: 0.102
KMT2E (UniProt Q8IZD2)	inactive: 0.003
KIZ (UniProt Q2M2Z5)	inactive: 0.453
KIFC1 (UniProt Q9BW19)	inactive: 0.135
KCNK5 (UniProt O95279)	inactive: -0.054
JOSD1 (UniProt Q15040)	inactive: 0.107

Rewritten with bars between the fields: entries from further up.
Target | log2 fold change
KCNK1 (UniProt O00180) | inactive: 0.102
KCNK5 (UniProt O95279) | inactive: -0.054
